PubChem BioAssay AID504791 | Drosophila RNAi Screening Center | 2011

Assay: 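Genes of the fly required for silencing by miRNA, siRNA or endo-siRNA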 (primary screen)
Cells: Drosophila S2-derived reporter cells
Knock-down reagent: long dsRNA against Drosophila genes, about 150-250 ng dsRNA per well (siRNA assay); about 80-120 ng (miRNA assay)
Duration: about 5 days (siRNA assay); about 4 days (miRNA assay)
Treatment: copper sulfate induction of reporters: 25 µM (siRNA assay); 200 mM stated (miRNA assay), 1-2 days before reading
Read-out: 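Dual luciferase assay: Renilla to firefly signal ratio in each well, scaled to the mean ratio of its plate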
Reading the numbers: siRNA reporter hit score: higher = 3 marks a strong hit with raised ratio; -3 a strong hit with lowered ratio
Call rule: 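a well was a first-pass pick when its plate-scaled ratio rose above 1.5 (siRNA assay) or 1.6 (miRNA assay), or dropped below 0.6; a gene counted only if two separate dsRNAs agreed on retest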
The screen tested about 23,000 reagents; this is a random part of those that have a named target and a result. Over the whole deposit, 199 (0.86%) got an active call. 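Plate-scaled ratios behind the calls are not deposited; printed light signals are raw; many rows marked increased or decreased are still called inactive.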 A plus sign joins genes that one reagent is predicted to hit.

gene knocked down	dsRNA	siRNA reporter hit score	stable siRNA reporter change	miRNA reporter change	stable assay Renilla, run 1 (luminescence)	stable assay firefly, run 1 (luminescence)	Outcome
Acp1 (Adult cuticle protein 1)	DRSC01854				6844	4.01e5	inactive
TBPH (TAR DNA-binding protein-43 homolog)	DRSC04660				98629	8.80e5	inactive
CG32069 + Blos2	DRSC10621				7339	3.89e5	inactive
CG13218	DRSC06340				6307	4.58e5	inactive
CG12684	DRSC17875				5919	2.69e5	inactive
bif (bifocal)	DRSC18901				4959	3.75e5	inactive
bif (bifocal)	DRSC20313				8561	4.73e5	inactive
LysRS (Lysyl-tRNA synthetase)	DRSC17824				7870	4.47e5	inactive
Unc-115a (Uncoordinated 115a)	DRSC12749				6455	4.14e5	inactive
CG9917	DRSC20218				7156	5.42e5	inactive
Txl (Thioredoxin-like)	DRSC11310				7618	4.16e5	inactive
CG10738	DRSC09792				5651	3.82e5	inactive
CG15822	DRSC08482				5816	3.07e5	inactive
CG15822	DRSC08483				5443	3.00e5	inactive
CG3008	DRSC00560				7176	3.93e5	inactive
fon (fondue)	DRSC02507				73488	1.16e6	inactive
ais (aramis)	DRSC10523				7560	2.70e5	inactive
CG7196 (retired record)	DRSC01000				4990	3.56e5	inactive
CG7196 (retired record)	DRSC03023				7617	5.81e5	inactive
ewg (erect wing)	DRSC18773				4272	4.28e5	inactive
Fmo-2 (Flavin-containing monooxygenase 2)	DRSC04983				7655	1.46e6	inactive
AGO2 (Argonaute 2)	DRSC09999	3	reporter ratio raised past the hit cutoff		15248	4.85e5	inactive
AGO2 (Argonaute 2)	DRSC10847	3	reporter ratio raised past the hit cutoff		20845	3.26e5	active
CG11737	DRSC14364				6624	3.93e5	inactive
CG10864	DRSC14273				8223	3.14e5	inactive
CG31418	DRSC21780				8742	4.91e5	inactive
upSET	DRSC11051				8440	2.79e5	inactive
upSET	DRSC23289				6178	4.39e5	inactive
CG15330	DRSC18014				4991	2.66e5	inactive
hig (hikaru genki)	DRSC07628			reporter ratio raised past the hit cutoff	4810	3.42e5	inactive
hig (hikaru genki)	DRSC22827				4111	3.90e5	inactive
hig (hikaru genki)	DRSC22899		reporter ratio raised past the hit cutoff		5202	1.84e5	inactive
bonsai	DRSC04453				6422	3.80e5	inactive
wol (wollknaeuel)	DRSC03077				13592	1.11e6	inactive
Dus4 (Dihydrouridine synthase 4)	DRSC02066				1.51e5	1.27e6	inactive
CG14694	DRSC14917				6700	3.50e5	inactive
CG5653	DRSC10534				6378	4.25e5	inactive
Jon99Fii + Jon99Cii + Jon99Ciii + 1 more	DRSC15298				5839	3.67e5	inactive
sd (scalloped)	DRSC20370				4127	4.28e5	inactive
sd (scalloped)	DRSC21712				4555	4.78e5	inactive
CG33695 + cana	DRSC01163				5082	5.43e5	inactive
CG33695 + cana	DRSC03503				6674	3.57e5	inactive
Odj (Oddjob)	DRSC16234				7436	3.32e5	inactive
Rab11	DRSC16809				8575	2.84e5	inactive
rt (rotated abdomen)	DRSC11391				6483	3.52e5	inactive
dysc (dyschronic)	DRSC10273				5028	3.37e5	inactive
dysc (dyschronic)	DRSC11040				7907	5.98e5	inactive
dysc (dyschronic)	DRSC22334				8429	5.32e5	inactive
dysc (dyschronic)	DRSC22824				4759	4.68e5	inactive
fau	DRSC12816				5631	3.28e5	inactive
fau	DRSC12817				6210	3.95e5	inactive
fau	DRSC16943				7760	4.71e5	inactive
fau	DRSC16944				6143	3.30e5	inactive
fau	DRSC16945				4431	3.09e5	inactive
fau	DRSC22360				9826	6.29e5	inactive
CG4806	DRSC04491				6763	4.55e5	inactive
okr (okra)	DRSC00834				12287	2.39e5	inactive

4 entries from above, arranged by “stable assay Renilla, run 1 (luminescence)”, high to low:
gene knocked down	dsRNA	siRNA reporter hit score	stable siRNA reporter change	miRNA reporter change	stable assay Renilla, run 1 (luminescence)	stable assay firefly, run 1 (luminescence)	Outcome
AGO2 (Argonaute 2)	DRSC10847	3	reporter ratio raised past the hit cutoff		20845	3.26e5	active
CG31418	DRSC21780				8742	4.91e5	inactive
CG10864	DRSC14273				8223	3.14e5	inactive
CG11737	DRSC14364				6624	3.93e5	inactive
